Measurements taken from PMC10413355.
Results are given in words; binding and its absence hold for the method and conditions named. Binding seen in cells or lysates may run through a third protein. Some results given as binding are weak or reduced against the parent protein; the word gives no strength. Sequences can lack the tags named with a protein.

Amino acid sequences for entries named in this document (tags omitted). Residues count along the entry.
UniProt P47871, residues 26-477: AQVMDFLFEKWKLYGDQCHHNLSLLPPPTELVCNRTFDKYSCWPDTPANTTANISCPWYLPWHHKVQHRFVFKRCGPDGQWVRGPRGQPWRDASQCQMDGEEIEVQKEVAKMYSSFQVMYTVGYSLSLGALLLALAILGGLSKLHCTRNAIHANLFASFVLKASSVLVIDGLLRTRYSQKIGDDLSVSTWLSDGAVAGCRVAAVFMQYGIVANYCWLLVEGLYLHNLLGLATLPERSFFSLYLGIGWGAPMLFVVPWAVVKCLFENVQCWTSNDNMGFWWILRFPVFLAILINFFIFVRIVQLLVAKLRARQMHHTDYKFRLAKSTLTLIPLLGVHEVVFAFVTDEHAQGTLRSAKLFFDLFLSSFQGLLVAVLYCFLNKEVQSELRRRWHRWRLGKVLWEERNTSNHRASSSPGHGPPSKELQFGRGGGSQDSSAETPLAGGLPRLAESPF

Target: human glucagon receptor-GFP (human) (UniProt P47871)
Assay: co-IP; HEPG2 cells co-transfected with ARRDC4-C-Myc/FLAG and glucagon receptor-GFP (or receptor + empty vector), with or without glucagon (200 nM, 15 min); 500 ug lysate in 50 mM Tris-HCl, 500 mM NaCl, 1 mM EDTA, 1% Triton X-100, pH 7.4, on anti-FLAG or anti-GFP magnetic beads, 1 h at 4 °C; eluted with FLAG or GFP peptide; blotted for GFP and FLAG

binding: binds
B1: human arrestin domain-containing 4 (ARRDC4) protein, C-Myc/FLAG-tagged (protein, UniProt Q8NCT1 1-418)
chain: MGGEAGCAAAVGAEGRVKSLGLVFEDERKGCYSSGETVAGHVLLEASEPVALRALRLEAQGRATAAWGPSTCPRASASTAALAVFSEVEYLNVRLSLREPPAGEGIILLQPGKHEFPFRFQLPSEPLVTSFTGKYGSIQYCVRAVLERPKVPDQSVKRELQVVSHVDVNTPALLTPVLKTQEKMVGCWFFTSGPVSLSAKIERKGYCNGEAIPIYAEIENCSSRLIVPKAAIFQTQTYLASGKTKTIRHMVANVRGNHIASGSTDTWNGKTLKIPPVTPSILDCCIIRVDYSLAVYIHIPGAKKLMLELPLVIGTIPYNGFGSRNSSIASQFSMDMSWLTLTLPEQPEAPPNYADVVSEEEFSRHIPPYPQPPNCEGEVCCPVFACIQEFRFQPPPLYSEVDPHPSDVEESQPVSFIL
